Data as given in PubChem BioAssay AID743458 (Peter MacCallum Cancer Centre, 2014)

- Test: 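Find knock-downs that make vorinostat-resistant colon cancer cells sensitive again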 (follow-up of hits)
- Cells: human HCT116-VR colon cancer cells made resistant to vorinostat
- Reagent: single siRNA or pool against human genes, 25 nM per single siRNA
- Duration: about 72 h after transfection, including 24 h of drug
- Conditions: vorinostat, 2.5 µM final, for 24 h
- Measurement: 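Cell viability by fluorescence and apoptosis by caspase 3/7 luminescence under vorinostat, background-corrected, averaged across two plate copies and given as fold change versus mock transfection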
- Reading the numbers: viability relative to mock: higher = more living cells than mock; caspase activity relative to mock: higher = more apoptosis than mock
- Hit rule: 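An siRNA counts as active if classed as reduced viability or as caspase activation, otherwise inactive; a hit class needed wells that remained healthy in the absence of drug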
In all, the deposit lists about 1,800 reagents; this is an unselected part. 732 of all reagents (41%) were called active. 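Calls are per siRNA reagent; a gene was deemed confirmed only if most of its four siRNAs scored.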

Silencing of MYCBPAP (MYCBP associated protein) [SID134271097] came out at: viability relative to mock 0.3; caspase activity relative to mock 0.66; viability hit class no change; caspase hit class no change; inactive. Silencing of MYCBPAP (MYCBP associated protein) [SID134271098] gave: viability relative to mock 0.82; caspase activity relative to mock 1.23; viability hit class no change; caspase hit class no change; inactive. MYCBPAP (MYCBP associated protein) [SID134271099] gave viability relative to mock 0.66; caspase activity relative to mock 4.03; viability hit class no change; caspase hit class caspase activation; active. For MYCBPAP (MYCBP associated protein) [SID134271100], the values are viability relative to mock 0.99; caspase activity relative to mock 1.05; viability hit class no change; caspase hit class no change; inactive. Knock-down of LCE2A (late cornified envelope 2A) [SID134281105] came out at: viability relative to mock 0.92; caspase activity relative to mock 6.5; viability hit class no change; caspase hit class caspase activation; active. LCE2A (late cornified envelope 2A) [SID134281106] scored viability relative to mock 0.78; caspase activity relative to mock 2.34; viability hit class no change; caspase hit class no change; inactive.

LCE2A (late cornified envelope 2A) [SID134281107] showed viability relative to mock 0.44; caspase activity relative to mock 4.2; viability hit class no change; caspase hit class no change; inactive. Against LCE2A (late cornified envelope 2A) [SID134281108], the values are viability relative to mock 0.74; caspase activity relative to mock 3.08; viability hit class no change; caspase hit class caspase activation; active. Silencing of CNOT3 (CCR4-NOT transcription complex subunit 3) [SID134285877] gave: viability relative to mock 0.84; caspase activity relative to mock 2.53; viability hit class no change; caspase hit class no change; inactive. Silencing of CNOT3 (CCR4-NOT transcription complex subunit 3) [SID134285878] resulted in: viability relative to mock 0.39; caspase activity relative to mock 5.36; viability hit class reduced viability; caspase hit class caspase activation; active. Depletion of CNOT3 (CCR4-NOT transcription complex subunit 3) [SID134285879] came out at: viability relative to mock 0.56; caspase activity relative to mock 4.59; viability hit class reduced viability; caspase hit class caspase activation; active. CNOT3 (CCR4-NOT transcription complex subunit 3) [SID134285880] showed viability relative to mock 0.82; caspase activity relative to mock 5.02; viability hit class no change; caspase hit class caspase activation; active.
